Assay results as given in PubChem BioAssay AID2685 (National Center for Advancing Translational Sciences (NCATS), 2010).
The other results are listed elsewhere or left out. Shown are side measurements of this screen, not its main read-out; they come without a call. The list favours compounds with an active or inconclusive main result. Potencies come from curve fits of mixed quality, noted in brackets.

Test: qHTS Assay for Lipid Storage Modulators in Drosophila S3 Cells;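 as to cell number change: cells counted by Cell Tracker Red CMTPX staining in the red channel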
Details: BODIPY lipid droplet fluorescence, 18-24 h; for cell number change: measured here: cell count max response, cells fed with added oleic acid
In short: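 Drosophila S3 cells loaded with oleic acid (400 uM, as added) and compounds at several concentrations; lipid droplets imaged by 488-nm laser-scanning cytometry, 500–530 nm intensity and object ratio to cell channel. Percent activity normalized to 20 uM Triacsin C.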

[1] = measured here: cell number channel AC50, cells fed with added oleic acid
[2] = measured here: lipid fluorescence (Fed channel) AC50, cells fed with added oleic acid

Q: For `CCCN(C(=O)Cc1coc2cc(C)c(C)cc12)c1c(N)n(Cc2ccccc2)c(=O)[nH]c1=O`, which cell number change is on record?
A: Its cell number change is 24%.

Q: What does the source list for `Cc1cc(C)nc(NC(=O)c2ccc([N+](=O)[O-])o2)n1`?
A: cell number change: -14%; AC50 [1]: 0.0103 µM [falling, full curve, poor fit]; AC50 [2]: 0.651 µM [falling, full curve, poor fit]

Q: Which cell number change does the source give for `CCN(C(=O)COC(=O)c1[nH]c(C)c(C(C)=O)c1C)C1CCS(=O)(=O)C1` (stereo unspecified) here?
A: The cell number change was 14.5%.

Q: And the AC50 [2]?
A: Its AC50 is 29.1 µM [rising, single point].

Q: With `CN(c1ccccc1)S(=O)(=O)c1ccc(Cl)c(C(=O)NCCc2c[nH]c3ccccc23)c1` as the compound, how does the cell number change read?
A: Its cell number change is -5.57%.

Q: And the AC50 [2]?
A: Its AC50 is 20.6 µM [falling, single point].

Q: With `Cc1ccc(S(=O)(=O)N2CCOC23CCN(C(=O)c2ccccc2Br)CC3)cc1` as the compound, how does the cell number change read?
A: The cell number change was -32%.

Q: And the AC50 [1]?
A: Its AC50 is 25.9 µM [falling, partial curve].

Q: What about the AC50 [2] of the same compound?
A: The AC50 was 0.184 µM [falling, full curve].

Q: What does the source list for `Cc1cccc(/C(N)=N/OC(=O)Cc2cccc3ccccc23)c1`?
A: cell number change: -8.36%; AC50 [2]: 0.00411 µM [falling, full curve, poor fit]

Q: Which cell number change does the source give for `COc1cccc(NC(=S)NCc2ccc3c(c2)cc(C)n3C)c1` here?
A: The cell number change was 12.6%.

Q: What does the source list for `CC(C)C[C@@H](N)c1nnc(SCC(=O)c2ccc(Cl)cc2)o1`?
A: cell number change: 33%; AC50 [1]: 29.1 µM [rising, single point]; AC50 [2]: 6.51 µM [falling, single point]

Q: For `Cc1ccc(-c2nn(-c3ccccc3)cc2C(=O)NCC(c2cccs2)N2CCOCC2)cc1` (stereo unspecified), which cell number change is on record?
A: The cell number change was 5.31%.

Q: And the AC50 [1]?
A: The AC50 was 0.00461 µM [rising, full curve, poor fit].

Q: For `N#CCSc1nc2cc(C(=O)N3CCC(C(N)=O)CC3)ccc2c2nc3ccccc3n12`, which cell number change is on record?
A: The cell number change was 1.81%.

Q: And the AC50 [2]?
A: The AC50 was 0.231 µM [rising, full curve, poor fit].

Q: Which cell number change does the source give for `CCC(C)N(C)C(=O)c1cc2ccccc2c(-c2ccccc2Cl)n1` (stereo unspecified) here?
A: Its cell number change is -11.3%.

Q: And the AC50 [1]?
A: The AC50 was 0.326 µM [rising, full curve, poor fit].

Q: For `CC(OC(=O)c1ccc(C#N)cc1)C(=O)Nc1ccc(Cl)cn1` (stereo unspecified), which cell number change is on record?
A: Its cell number change is -11.3%.

Q: With `COc1ccc(OC)c(/C=C/C(=O)OCC(=O)Nc2cccc(C(C)=O)c2)c1` as the compound, how does the cell number change read?
A: The cell number change was 19.5%.

Q: What about the AC50 [2] of the same compound?
A: Its AC50 is 10.3 µM [rising, partial curve].

Q: Which cell number change does the source give for `Cc1cc(C)n(-c2nc(Nc3ccccc3)nc(-n3nc(C)cc3C)n2)n1` here?
A: Its cell number change is -2.17%.

Q: And the AC50 [2]?
A: The AC50 was 0.651 µM [rising, single point].

Q: With `CN(C(=O)CSc1ncccc1C(=O)O)c1ccccc1` as the compound, how does the cell number change read?
A: Its cell number change is -6.39%.

Q: For `CCN1CCN(Cc2nc(N)nc(Nc3ccc(C)c(C)c3)n2)CC1`, which cell number change is on record?
A: Its cell number change is -12.8%.

Q: What about the AC50 [1] of the same compound?
A: Its AC50 is 1.16 µM [falling, partial curve].

Q: For `CCOC(=O)C1=C(c2ccccc2)NC(=O)NC1c1cc(Br)c(O)c(OC)c1` (stereo unspecified), which cell number change is on record?
A: The cell number change was 1.8%.

Q: For `O=C(CNC(=O)c1ccccc1F)N/N=C/c1cc(Br)ccc1OC(=O)/C=C/c1ccco1`, which cell number change is on record?
A: Its cell number change is 4.35%.

Q: And the AC50 [2]?
A: The AC50 was 7.31 µM [falling, partial curve].

Q: Which AC50 [1] does the source give for `CCCSC1=C(C#N)C(c2ccc(Cl)cc2Cl)CC(=O)N1` (stereo unspecified) here?
A: Its AC50 is 6.51 µM [falling, single point].

Q: Which cell number change does the source give for `O=[N+]([O-])c1ccc(NCCCN2CCOCC2)c(Cl)c1` here?
A: The cell number change was -23.2%.

Q: And the AC50 [2]?
A: Its AC50 is 0.411 µM [falling, full curve].

Q: For `Cc1cc(=O)n2nc(N3CCCC(C(=O)NCc4ccccc4Cl)C3)sc2n1` (stereo unspecified), which cell number change is on record?
A: Its cell number change is -27.8%.

Q: And the AC50 [1]?
A: The AC50 was 6.51 µM [falling, single point].

Q: What about the AC50 [2] of the same compound?
A: Its AC50 is 8.2 µM [falling, partial curve].

Q: Which cell number change does the source give for `O=C(O)c1cc(-c2ccc(Cl)cc2)n(-c2ccc(Cl)cc2)n1` here?
A: The cell number change was -7.82%.

Q: For `O=C(N/N=C/c1ccncc1)c1ccc(NC(=O)c2ccc(Cl)cc2)cc1`, which AC50 [2] is on record?
A: The AC50 was 9.2 µM [rising, partial curve].

Q: For `COc1cccc(Cn2ncc3c4sc(B(O)O)cc4n(C)c3c2=O)c1`, which AC50 [1] is on record?
A: Its AC50 is 0.259 µM [rising, full curve, poor fit].

Q: Which AC50 [2] does the source give for `COc1ccc(-c2cc(-c3n[nH]c(=S)n3-c3cc(OC)ccc3OC)[nH]n2)cc1` here?
A: The AC50 was 0.164 µM [rising, full curve, poor fit].

Q: For `Cc1ccc(NC(=O)COc2ccc(Br)cc2C)cc1`, which cell number change is on record?
A: Its cell number change is 25.1%.

Q: What about the AC50 [1] of the same compound?
A: Its AC50 is 3.66 µM [rising, single point].

Q: And the AC50 [2]?
A: The AC50 was 0.82 µM [rising, full curve, poor fit].

Q: Which cell number change does the source give for `CCN(CC)C(=O)Cc1c(O)c2ccccc2[nH]c1=O` here?
A: The cell number change was -0.65%.

Q: What about the AC50 [2] of the same compound?
A: The AC50 was 0.0206 µM [falling, full curve].

Q: Which cell number change does the source give for `O=[N+]([O-])c1ccc(S(=O)(=O)NCCS(=O)(=O)N2CCN(c3ccccc3)CC2)cc1` here?
A: Its cell number change is -9.16%.

Q: What about the AC50 [2] of the same compound?
A: Its AC50 is 29.1 µM [falling, single point].

Q: For `Cn1c(COc2ccccc2)nnc1SCCC(=O)Nc1ccccc1`, which cell number change is on record?
A: Its cell number change is -33%.

Q: What about the AC50 [1] of the same compound?
A: The AC50 was 10.3 µM [falling, single point].

Q: What about the AC50 [2] of the same compound?
A: Its AC50 is 4.11 µM [falling, full curve].

Q: Which cell number change does the source give for `COc1ccc(C(=O)Nc2ccc3c(c2)nc(CCNC(=O)c2ccco2)n3C)cc1` here?
A: Its cell number change is 18.3%.

Q: With `CCCNC(=O)C(C)n1c2ccccc2c2nc(=O)cc(C)n21` (stereo unspecified) as the compound, how does the cell number change read?
A: Its cell number change is -13.9%.

Q: And the AC50 [2]?
A: Its AC50 is 6.51 µM [rising, single point].

Q: Which cell number change does the source give for `CN(C)CCCn1c2c(c(SCC(=O)Nc3nccs3)nc1=O)CCC2` here?
A: The cell number change was 8.07%.

Q: What about the AC50 [2] of the same compound?
A: Its AC50 is 29.1 µM [falling, single point].

Q: With `c1ccc(Cc2nnc3sc(-c4ccncc4)nn23)cc1` as the compound, how does the AC50 [2] read?
A: The AC50 was 6.51 µM [falling, single point].

Q: Which results are given for `NS(=O)(=O)c1ccc(NC(=S)Nc2ccn(Cc3cccc4ccccc34)n2)cc1`?
A: cell number change: -4.33%; AC50 [1]: 0.366 µM [falling, partial curve, poor fit]; AC50 [2]: 0.326 µM [falling, partial curve, poor fit]

Q: For `CC(C(=O)Nc1ccccn1)c1ccccc1` (stereo unspecified), which cell number change is on record?
A: Its cell number change is -1.85%.

Q: What about the AC50 [2] of the same compound?
A: The AC50 was 2.31 µM [rising, partial curve, poor fit].

Q: With `Cn1c(C(=O)NCCc2ccsc2)cc2c(=O)n(C)c3ccccc3c21` as the compound, how does the cell number change read?
A: The cell number change was 68%.

Q: What about the AC50 [1] of the same compound?
A: Its AC50 is 0.92 µM [rising, full curve].

Q: What about the AC50 [2] of the same compound?
A: The AC50 was 0.92 µM [rising, full curve].

Q: What does the source list for `CCOC(=O)Cn1c(=O)c(F)cn(Cc2ccc(OC)c([N+](=O)[O-])c2)c1=O`?
A: cell number change: -12.9%; AC50 [2]: 0.58 µM [rising, single point]

Q: Which AC50 [2] does the source give for `Cc1ccc(C)c(N(C(=O)CNC(=O)c2ccco2)C(C(=O)NC2CCCCC2)c2cccnc2)c1` (stereo unspecified) here?
A: The AC50 was 1.3 µM [falling, single point].
